{"source": "patent US9134318B2", "about": "“Detection of oxidized polypeptides” (Purdue Research Foundation, priority 2009, dated 2015)", "key": {"[1]": {"test_system": "carbonylated plasma proteins", "assay": "iTRAQ and MALDI/TOF/TOF quantitative comparison of avidin-selected carbonylated proteins, breast cancer patients vs controls (Table 8)", "design": "species or system Homo sapiens", "conditions": "avidin-selected carbonylated protein in plasma, breast cancer patient vs matched control, iTRAQ; repeated lines of a protein = different donors; negative = lower in cancer"}, "[2]": {"test_system": "carbonylated plasma proteins", "assay": "MALDI/TOF/TOF identification of avidin-selected carbonylated proteins in normal human plasma (Table 6)", "conditions": "MALDI-MS/MS (ABI 4800 plus)"}}}
{"molecule": "CD5 antigen-like precursor (protein, UniProt O43866 1-347, looked up, full-length oxidized) MALLFSLILAICTRPGFLASPSGVRLVGGLHRCEGRVEVEQKGQWGTVCDDGWDIKDVAVLCRELGCGAASGTPSGILYEPPAEKEQKVLIQSVSCTGTEDTLAQCEQEEVYDCSHDEDAGASCENPESSFSPVPEGVRLADGPGHCKGRVEVKHQNQWYTVCQTGWSLRAAKVVCRQLGCGRAVLTQKRCNKHAYGRKPIWLSQMSCSGREATLQDCPSGPWGKNTCNHDEDTWVECEDPFDLRLVGGDNLCSGRLEVLHKGVWGSVCDDNWGEKEDQVVCKQLGCGKSLSPSFRDRKCYGPGVGRIWLDNVRCSGEEQSLEQCQHRFWGFHDCTHQEDVAVICSG", "values": [{"measurement": "Breast cancer/control (fold change)", "setting": "[1]", "result": 2.0, "unit": "fold change"}]}
{"molecule": "IGHA2_HUMAN (protein, UniProt P01877 1-391, looked up) Immunoglobulin heavy constant …: ASPTSPKVFPLSLDSTPQDGNVVVACLVQGFFPQEPLSVTWSESGQNVTARNFPPSQDASGDLYTTSSQLTLPATQCPDGKSVTCHVKHYTNSSQDVTVPCRVPPPPPCCHPRLSLHRPALEDLLLGSEANLTCTLTGLRDASGATFTWTPSSGKSAVQGPPERDLCGCYSVSSVLPGCAQPWNHGETFTCTAAHPELKTPLTANITKSGNTFRPEVHLLPPPSEELALNELVTLTCLARGFSPKDVLVRWLQGSQELPREKYLTWASRQEPSQGTTTYAVTSILRVAAEDWKKGETFSCMVGHEALPLAFTQKTIDRMAGSCCVADWQMPPPYVVLDLPQETLEEETPGANLWPTTITFLTLFLLSLFYSTALTVTSVRGPSGKREGPQY", "values": [{"measurement": "Number of unique peptides assigned to the protein", "setting": "[2]; Donor 2", "result": 3.52}]}
{"molecule": "C4BP_HUMAN (protein, UniProt P04003 49-597, looked up) C4b-binding protein alpha …: NCGPPPTLSFAAPMDITLTETRFKTGTTLKYTCLPGYVRSHSTQTLTCNSDGEWVYNTFCIYKRCRHPGELRNGQVEIKTDLSFGSQIEFSCSEGFFLIGSTTSRCEVQDRGVGWSHPLPQCEIVKCKPPPDIRNGRHSGEENFYAYGFSVTYSCDPRFSLLGHASISCTVENETIGVWRPSPPTCEKITCRKPDVSHGEMVSGFGPIYNYKDTIVFKCQKGFVLRGSSVIHCDADSKWNPSPPACEPNSCINLPDIPHASWETYPRPTKEDVYVVGTVLRYRCHPGYKPTTDEPTTVICQKNLRWTPYQGCEALCCPEPKLNNGEITQHRKSRPANHCVYFYGDEISFSCHETSRFSAICQGDGTWSPRTPSCGDICNFPPKIAHGHYKQSSSYSFFKEEIIYECDKGYILVGQAKLSCSYSHWSAPAPQCKALCRKPELVNGRLSVDKDQYVEPENVTIQCDSGYGVVGPQSITCSGNRTWYPEVPKCEWETPEGCEQVLTGKRLMQCLPNPEDVKMALEVYKLSLEIEQLELQRDSARQSTLDKEL", "values": [{"measurement": "Number of unique peptides assigned to the protein", "setting": "[2]; Donor 3", "result": 10.35}]}
